# Results of single-concentration screens

Protein sequences, listed by entry. Tags and fused reporters are not part of them. Residues count along the entry.
UniProt Q4DA54, 1-478: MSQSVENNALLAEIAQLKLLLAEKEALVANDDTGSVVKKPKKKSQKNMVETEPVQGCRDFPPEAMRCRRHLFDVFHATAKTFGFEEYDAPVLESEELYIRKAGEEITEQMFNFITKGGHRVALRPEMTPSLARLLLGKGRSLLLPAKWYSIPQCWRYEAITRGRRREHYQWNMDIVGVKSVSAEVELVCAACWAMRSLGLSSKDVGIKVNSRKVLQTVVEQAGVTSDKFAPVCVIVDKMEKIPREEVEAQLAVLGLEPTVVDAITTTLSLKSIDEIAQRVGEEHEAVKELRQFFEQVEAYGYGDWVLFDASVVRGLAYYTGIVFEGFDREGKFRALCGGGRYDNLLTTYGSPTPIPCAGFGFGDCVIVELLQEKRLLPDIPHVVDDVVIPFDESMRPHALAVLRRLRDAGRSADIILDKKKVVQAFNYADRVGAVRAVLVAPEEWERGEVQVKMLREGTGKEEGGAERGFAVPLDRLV
UniProt P9WFT3, whole entry: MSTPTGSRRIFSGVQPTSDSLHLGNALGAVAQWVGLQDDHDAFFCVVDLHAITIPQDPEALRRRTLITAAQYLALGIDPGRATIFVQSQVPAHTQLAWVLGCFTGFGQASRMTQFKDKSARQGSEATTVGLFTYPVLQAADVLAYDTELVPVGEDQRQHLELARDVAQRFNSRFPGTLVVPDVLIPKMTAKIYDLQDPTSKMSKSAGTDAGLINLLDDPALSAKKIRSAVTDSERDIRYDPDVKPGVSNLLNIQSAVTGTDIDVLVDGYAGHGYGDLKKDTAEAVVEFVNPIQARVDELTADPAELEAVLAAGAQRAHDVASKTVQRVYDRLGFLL
UniProt I6X8D2, whole entry: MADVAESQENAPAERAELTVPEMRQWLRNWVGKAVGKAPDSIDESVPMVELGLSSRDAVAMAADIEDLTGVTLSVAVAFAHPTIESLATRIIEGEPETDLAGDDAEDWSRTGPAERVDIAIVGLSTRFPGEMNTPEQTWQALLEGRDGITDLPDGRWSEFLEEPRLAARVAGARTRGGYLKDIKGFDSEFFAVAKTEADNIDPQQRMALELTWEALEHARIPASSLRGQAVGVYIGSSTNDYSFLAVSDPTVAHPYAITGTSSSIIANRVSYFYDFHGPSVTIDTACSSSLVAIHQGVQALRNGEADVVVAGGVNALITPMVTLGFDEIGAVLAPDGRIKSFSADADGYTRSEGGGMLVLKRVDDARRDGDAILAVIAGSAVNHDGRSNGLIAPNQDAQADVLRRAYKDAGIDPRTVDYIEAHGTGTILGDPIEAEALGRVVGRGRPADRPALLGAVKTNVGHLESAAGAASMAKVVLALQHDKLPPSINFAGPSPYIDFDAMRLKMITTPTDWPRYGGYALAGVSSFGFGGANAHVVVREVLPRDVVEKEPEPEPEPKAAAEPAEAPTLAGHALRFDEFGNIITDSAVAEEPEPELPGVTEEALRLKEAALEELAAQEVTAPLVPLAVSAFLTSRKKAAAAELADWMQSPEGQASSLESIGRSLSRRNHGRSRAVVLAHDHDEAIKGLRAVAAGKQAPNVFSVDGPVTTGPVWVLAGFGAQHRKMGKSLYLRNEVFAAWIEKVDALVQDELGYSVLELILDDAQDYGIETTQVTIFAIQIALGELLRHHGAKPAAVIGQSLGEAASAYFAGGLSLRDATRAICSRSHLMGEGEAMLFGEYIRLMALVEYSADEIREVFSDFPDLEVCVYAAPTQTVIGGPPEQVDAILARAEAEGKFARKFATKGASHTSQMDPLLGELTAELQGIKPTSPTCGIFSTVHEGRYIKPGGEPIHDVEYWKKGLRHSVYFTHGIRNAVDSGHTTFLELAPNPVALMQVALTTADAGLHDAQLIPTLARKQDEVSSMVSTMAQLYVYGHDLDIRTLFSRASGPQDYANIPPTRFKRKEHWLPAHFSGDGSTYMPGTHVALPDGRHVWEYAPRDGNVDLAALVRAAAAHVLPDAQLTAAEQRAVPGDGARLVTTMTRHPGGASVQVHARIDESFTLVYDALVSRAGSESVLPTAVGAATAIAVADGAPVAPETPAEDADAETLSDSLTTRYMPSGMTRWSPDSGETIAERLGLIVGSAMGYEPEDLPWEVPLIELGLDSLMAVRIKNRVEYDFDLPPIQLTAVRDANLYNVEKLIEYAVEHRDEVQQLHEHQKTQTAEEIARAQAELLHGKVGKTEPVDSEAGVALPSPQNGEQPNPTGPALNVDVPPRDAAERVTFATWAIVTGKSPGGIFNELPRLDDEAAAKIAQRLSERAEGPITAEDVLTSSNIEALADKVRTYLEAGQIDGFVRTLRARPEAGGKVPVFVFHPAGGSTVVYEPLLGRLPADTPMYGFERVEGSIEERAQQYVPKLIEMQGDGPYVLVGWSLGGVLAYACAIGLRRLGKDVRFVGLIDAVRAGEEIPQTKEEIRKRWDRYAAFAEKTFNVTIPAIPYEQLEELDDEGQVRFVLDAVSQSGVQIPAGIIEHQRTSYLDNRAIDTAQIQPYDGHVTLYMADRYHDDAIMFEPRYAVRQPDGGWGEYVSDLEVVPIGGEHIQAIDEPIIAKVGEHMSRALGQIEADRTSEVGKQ
UniProt Q8IDJ8, 1-583: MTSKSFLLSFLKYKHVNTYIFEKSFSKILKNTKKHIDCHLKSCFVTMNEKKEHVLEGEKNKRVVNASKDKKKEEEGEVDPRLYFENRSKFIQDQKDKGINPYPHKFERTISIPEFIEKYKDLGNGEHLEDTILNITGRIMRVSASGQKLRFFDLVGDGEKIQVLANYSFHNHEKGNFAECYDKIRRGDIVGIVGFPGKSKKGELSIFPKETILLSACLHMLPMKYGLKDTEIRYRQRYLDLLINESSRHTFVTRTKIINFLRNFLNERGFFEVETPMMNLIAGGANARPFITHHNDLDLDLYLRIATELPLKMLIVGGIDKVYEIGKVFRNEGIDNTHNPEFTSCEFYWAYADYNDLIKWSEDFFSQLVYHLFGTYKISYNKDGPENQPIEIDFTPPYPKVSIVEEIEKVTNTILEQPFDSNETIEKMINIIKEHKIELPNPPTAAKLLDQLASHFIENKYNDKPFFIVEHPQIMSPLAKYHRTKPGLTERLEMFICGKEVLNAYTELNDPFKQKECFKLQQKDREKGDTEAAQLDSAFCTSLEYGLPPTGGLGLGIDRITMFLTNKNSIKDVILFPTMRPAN

Data taken from ChEMBL document CHEMBL3988442, “University of Dundee, Small-Polar-MMV Screening Library” (2021).

Values are the deposited “Percent Effect”, in %. The record does not define 0% and 100%; most values in the screen are far below 50% and negative numbers occur (in some assays of this library far below -100). The compounds are a random part of those screened. A dash means the value is not listed here; it may have been measured.

TcHisRS: 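Enzyme assay of histidyl-tRNA synthetase; the read-out is not stated. Target: Histidine-tRNA ligase, Trypanosoma cruzi CL Brener (UniProt Q4DA54). Concentration: 30 µM. Direction is inferred from retests: higher values go with stronger inhibition. About 69,000 compounds were tested under these conditions; 0.045% (about 31) showed 50% or more at least once.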
MtTrpRS: 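Tryptophan-tRNA ligase, Mycobacterium tuberculosis (UniProt P9WFT3). Enzyme assay of tryptophanyl-tRNA synthetase; the read-out is not stated. Concentration: 10 µM. Higher most likely means stronger inhibition; the record gives no direction and few retests gave an IC50. About 65,000 compounds were tested under these conditions; 0.098% (about 64) showed 50% or more at least once.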
Pks13 thioesterase: 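Polyketide synthase Pks13, Mycobacterium tuberculosis (UniProt I6X8D2). Enzyme assay of the thioesterase domain of polyketide synthase 13; the read-out is not stated. Tested at 30 µM. The record gives no direction; the compounds picked for IC50 retests had high values, so higher reads as stronger inhibition. Size under these conditions: about 67,000 compounds, about 300 of them at 50% or above in at least one test.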
PfKRS1: 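Lysine-tRNA ligase, Plasmodium falciparum 3D7 (UniProt Q8IDJ8). Enzyme assay of the cytosolic lysyl-tRNA synthetase in 384-well plates, read by luminescence. Concentration: 30 µM. Direction is inferred from only a few compounds that gave an IC50; most scored high, so higher reads as stronger inhibition. Of about 69,000 compounds tested this way, about 49 (0.071%) reached 50% or more in at least one test.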
Toxoplasma: 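Assay of Toxoplasma gondii numbers, read through their beta-galactosidase reporter with a colour substrate. Concentration: 10 µM. The record gives no direction; the compounds picked for IC50 retests had high values, so higher reads as fewer parasites. About 67,000 compounds were tested under these conditions; 0.38% (about 260) showed 50% or more at least once.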

CC(Cn1cccn1)NCC(=O)NC1(C#N)CCCCC1 (configuration not stated) gave TcHisRS: 8.387%; MtTrpRS: -1.818%; Pks13 thioesterase: -18.78%; PfKRS1: 8.667%; Toxoplasma: -4.39%. N#Cc1cc(Br)ccc1NC1CCN(CC(N)=O)CC1 read TcHisRS: 7.027%; MtTrpRS: 1.927%; Pks13 thioesterase: -27.55%; PfKRS1: 7.566%; Toxoplasma: 7.027%. Result for COc1ccc(OC)c(C(C)NS(=O)(=O)c2cnn(C)c2)c1 (configuration not stated) was TcHisRS: 3.093%; MtTrpRS: -0.2447%; Pks13 thioesterase: 1.432%; PfKRS1: -1.486%; Toxoplasma: -0.2533%. For CNC(=O)C1CCCN(c2nc3c(-c4ccccc4)csc3c(=O)[nH]2)C1 (configuration not stated) the result was TcHisRS: 4.124%; MtTrpRS: -7.827%; Pks13 thioesterase: -20.16%; PfKRS1: 9.835%; Toxoplasma: 12.74%. O=S(=O)(Nc1ccc(Oc2ccc3c(c2)OCO3)cc1)N1CCCCC1 read TcHisRS: -6.931%; MtTrpRS: 0.5825%; Pks13 thioesterase: 49.13%; PfKRS1: -2.311%; Toxoplasma: 17.22%. With CC(C)NC(=O)[C@@H]1Cc2[nH]cnc2CN1CCCc1ccccc1 the screen gave TcHisRS: -4.478%; MtTrpRS: 9.535%; Pks13 thioesterase: 3.724%; PfKRS1: -3.319%; Toxoplasma: 2.652%. With O=C(c1cccnc1)N1CCN(CC2CC2)c2ncccc2C1 the screen gave TcHisRS: 2.439%; MtTrpRS: 1.798%; Pks13 thioesterase: -2.148%; PfKRS1: -9.214%; Toxoplasma: 1.534%.

With COC(=O)c1cnc(C(=O)N(c2ccc(OC)c(F)c2)C(C)C)cn1 the screen gave TcHisRS: 7.182%; MtTrpRS: 0.9828%; Pks13 thioesterase: -8.788%; PfKRS1: 4.372%; Toxoplasma: 6.323%. CCOc1ncccc1NC(=O)c1cc2c(s1)CCC2 read TcHisRS: 1.626%; MtTrpRS: 6.066%; Pks13 thioesterase: -17.61%; PfKRS1: 3.483%; Toxoplasma: 6.339%. With Cc1ccc(CN2CCOC3(COCCN(CCN(C)C)C3)C2)o1.O=C(O)C(F)(F)F.O=C(O)C(F)(F)F.O=C(O)C(F)(F)F (configuration not stated) the screen gave Toxoplasma: 7.82%. With [H][C@@]12CN(C(=O)N3CCOCC3)C[C@]1([H])OCCN2C(=O)c1ccco1 the screen gave Toxoplasma: -0.05634%. Cc1ccc(NC2CCN(C(=O)Cc3c(C)nn(C)c3C)CC2)nn1 gave TcHisRS: 6.509%; MtTrpRS: -3.578%; Pks13 thioesterase: -19.52%; PfKRS1: -1.448%; Toxoplasma: -23.51%. Cc1cnn(CC2CCCCN2CC(=O)Nc2nncs2)c1 (configuration not stated) read TcHisRS: 4.082%; MtTrpRS: 3.597%; Pks13 thioesterase: -34.52%; PfKRS1: 4.594%; Toxoplasma: -15.97%. For CCOC(C)C(=O)Nc1ccc2c(ccn2CC)c1 (configuration not stated) the result was TcHisRS: 1.053%; MtTrpRS: -4.298%; Pks13 thioesterase: -12.59%; PfKRS1: 1.262%; Toxoplasma: -14.91%.

Result for O=C(CCSc1ccccc1F)NS(=O)(=O)c1ccc2c(c1)OCCO2 was TcHisRS: -2.5%; MtTrpRS: -1.154%; Pks13 thioesterase: 15.47%; PfKRS1: 2.976%; Toxoplasma: 4.377%. CNC(=O)N1CCC(=Cc2ccccc2)CC1 read TcHisRS: 2.941%; MtTrpRS: -0.4854%; Pks13 thioesterase: -35.38%; PfKRS1: -1.934%; Toxoplasma: 6.208%. For Cc1ccc(C(=O)N2CCN3C[C@H](Oc4cccnc4)C[C@H]3C2)cn1 the result was TcHisRS: -0.8%; MtTrpRS: -1.256%; Pks13 thioesterase: -7.31%; PfKRS1: 6.511%. CCOc1ccccc1C(=O)N1CCn2c(nnc2C(F)(F)F)C1 read TcHisRS: 6.404%; MtTrpRS: -3.66%; Pks13 thioesterase: -12.42%; PfKRS1: 6.195%; Toxoplasma: 3.071%.

The last 2 entries again:

Compound	TcHisRS	MtTrpRS	Pks13 thioesterase	PfKRS1	Toxoplasma
Cc1ccc(C(=O)N2CCN3C[C@H](Oc4cccnc4)C[C@H]3C2)cn1	-0.8	-1.256	-7.31	6.511	-
CCOc1ccccc1C(=O)N1CCn2c(nnc2C(F)(F)F)C1	6.404	-3.66	-12.42	6.195	3.071